# From PubChem BioAssay AID493014 (National Center for Advancing Translational Sciences (NCATS), 2011)
# About 170 (0.05%) of roughly 340,000 compounds were called active. Inconclusive means that the source gave no clear call. Such entries were picked first, then a sample of the others. Calls follow the shape of the dose curve; as a rule, active = well fitted inhibition curve with a large enough effect in the signal ratio, with a control signal flat (not every such curve was filed as active); inconclusive = small, poorly fitted or top-dose-only effect, or effect the other way, or a change in a side signal; inactive = flat fitted curve, though single readings scatter; the % refers to the signal ratio. Where the call is inconclusive, the potency comes from a doubtful curve fit.
# Assay: qHTS Assay to Find Inhibitors of Chronic Active B-Cell Receptor Signaling;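 as to activity change, negative = inhibition: plate controls were basal doxycycline-induced cells for no effect and cells given 10 µM MG132 for full effect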
# Details: ABC-DLBCL IkBa-CBG/CBR reporter, luminescence ratio (green luciferase fused to IkBa over red control in TMD8 lymphoma cells), 4 h; activity change, negative = inhibition: at 46.1 µM (top of the series)
# Method in brief: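 Compounds up to 46 uM were incubated four hours with TMD8 cells whose green CBG68 luciferase is fused to IkappaBalpha; red CBR luminescence normalised the signal, and concentration-effect curves were fitted to fusion, red and ratio data.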
# Potency is read from the fitted curve at half-maximal effect.
Structure (SMILES),"activity change, negative = inhibition",Potency
Cc1cc(C)c(COc2ccc(/C=N/n3c(C)n[nH]c3=S)cc2)c(C)c1,inconclusive: 7.01%,–
CCN(C(=O)COc1ncnc2ccccc12)C1CCCCC1,inconclusive: 2.75%,–
CCOc1ccc(NC(=O)c2cc([N+](=O)[O-])ccc2N2CCOCC2)cc1,–,"inconclusive: 16.4 µM [falling, single point]"
CCN(CCCNC(=O)COc1cc(=O)n(CC)c2ccccc12)Cc1ccccc1,–,"inconclusive: 16.4 µM [falling, partial curve]"
CCN(CC)C(=O)c1cc(-c2ccc(Br)cc2)on1,inconclusive: -1.8%,–
Cc1ccc(F)cc1S(=O)(=O)NCc1ccc(N2CCN(C)CC2)cc1,inconclusive: 18.8%,–
CCC(C)NC(=O)c1cc(Sc2cccc(Cl)c2)nc2ccccc12 (stereo not given),inactive,–
COC(=O)CSc1nc2nc(-c3cccs3)cc(C(F)(F)F)c2c(=O)[nH]1,inconclusive: 1.72%,–
O=C(CSc1nc2ccccc2nc1N1CCCC1)Nc1ccc(F)cc1,inconclusive: -4.78%,–
Cc1ccc(-c2ccc(SCC(=O)NC3CCCC3)nn2)cc1,inconclusive: -1.08%,–
CN(C)c1ccc(C(=O)OCC(=O)c2cccs2)cc1,–,"inconclusive: 20.6 µM [falling, single point]"
COc1ccc(NC(=O)CSc2n[nH]c(-c3ccncc3)n2)cc1Cl,inconclusive: -2.42%,–
Cc1cc2c(cn1)C(CCC#N)(CCC#N)c1ccccc1-2,inconclusive: 2.06%,–
COc1ccc(/C=N/NC(=O)c2ccc3c(c2)OCCO3)cc1[N+](=O)[O-],inconclusive: 3.83%,–
C=CCN(C(=O)CSc1nc2[nH]ncc2c(=O)n1-c1ccccc1OC)c1ccccc1,–,"inconclusive: 35.5 µM [falling, partial curve, poor fit]"
COC(=O)C1=C(C)N(Cc2ccccc2)C(=NCc2cc(OC)c(OC)c(OC)c2)N[C@H]1c1ccccc1,inconclusive: 2.55%,–
O=C(CN1CCN(C(=O)c2cccc(F)c2)CC1)NC1CCCCC1,inconclusive: 0.29%,–
CCOC(=O)N1CCN(C(=O)NC2CCCCC2)CC1,inactive,–
N/N=C/C(=N\Nc1ccc(Cl)cc1)C(=O)c1ccncc1,inconclusive: 15.8%,–
CCCn1cnc2cc(NCc3cccc(OC)c3)ccc21,–,"inconclusive: 2.59 µM [falling, partial curve]"
COc1ccc(CNC(=O)Cn2c(=O)oc3cc(S(=O)(=O)NCc4ccccc4)ccc32)cc1,inconclusive: 4.77%,–
Cc1ccc(-n2cc(CNCCn3nc(C)cc3C)c(-c3ccc(F)cc3)n2)cc1,inactive,–
COc1ccccc1-c1nnc2sc(COc3ccc(Cl)cc3)nn12,inconclusive: -20%,–
CCOC(=O)c1c(C)[nH]c2c1cc(O)c1ccccc12,inactive,–
N#Cc1ccccc1OCC(=O)N1CCN(S(=O)(=O)c2ccc(Cl)cc2)CC1,inconclusive: -19%,–
CC1(C)Oc2ccc3ccc(=O)oc3c2-c2cn[nH]c21,–,"inconclusive: 3.26 µM [falling, single point]"
Cn1c2ccc(F)cc2c2ncn(CCN3CCOCC3)c(=O)c21,inconclusive: 3.63%,–

Structure (SMILES),"activity change, negative = inhibition",Potency
CCn1cc(C(=O)NCCCOC(C)C)c(=O)c2cc(S(=O)(=O)N3CCOCC3)ccc21,inactive,–
Cc1cccc2cc(=O)[nH]c(C)c12,–,"inconclusive: 15.8 µM [falling, single point]"
Cc1cc(=O)oc2cc(OCC(=O)N3CC[C@@]4(O)CCCC[C@H]4C3)c(Cl)cc12,inconclusive: 0.823%,–
CSc1nc2nccc(-c3ccc(-c4ccccc4)cc3)n2n1,inconclusive: 17.1%,–
O=C(NC1CC1)C1CCN(S(=O)(=O)c2ccc(Cl)c([N+](=O)[O-])c2)CC1,inconclusive: -4.76%,–
Cc1ccc(C)c(NC(=S)NNC(=O)c2csc3c2CCCC3)c1,–,"inconclusive: 18.4 µM [falling, partial curve, poor fit]"
COc1ccc(S(=O)(=O)N2CCOCC2)cc1C(=O)NC1CCCCCC1,inactive,–
N#C/C(=C\c1cccc(O)c1)c1nc2ccccc2o1,–,"inconclusive: 35.5 µM [falling, single point]"
CC(C)c1ccc(N(CC(=O)NC2CCCC2)C(=O)CCC(=O)Nc2nccs2)cc1,inactive,–
CCCCNc1c(-c2ccc(SC3CCCCC3)cc2)nc2cnccn12,inconclusive: 4.39%,–
C/C(CC(=O)Nc1ccc(Cl)cc1C(F)(F)F)=N\NC(=O)c1cccs1,–,"inconclusive: 22.4 µM [falling, partial curve]"
O=C(CCCN1C(=O)/C(=C/c2cccc(Br)c2)SC1=S)N1CCOCC1,–,"inconclusive: 31.6 µM [rising, partial curve]"
COC(=O)NNC(=O)c1ccc(C)c(Br)c1,inconclusive: 7.27%,–
CCOc1ccc(-n2c(C)cc(/C=C3/C(=N)N4C(=NC3=O)SN=C4S(C)(=O)=O)c2C)cc1,inactive,–
CN1CCN(CCC(=O)N2c3ccccc3Sc3ccc(C(F)(F)F)cc32)CC1,–,"inconclusive: 20.6 µM [rising, partial curve]"
COc1ccc(CNC(=O)c2cnc(C)cn2)c(OC)c1,inconclusive: -0.702%,–
Cc1ccc(C)c(OCCCCN2CCNCC2)c1C,inconclusive: -5.55%,–
Cc1cccn2c(=O)c3cc(C(=O)NCC(C)C)sc3nc12,inconclusive: 6.17%,–
COc1ccc(C(=O)NC(=S)Nc2cc3oc4ccccc4c3cc2OC)cc1,inactive,–
COc1ccc(S(=O)(=O)N2CCCC2CNC(=O)C(=O)NCc2ccccc2Cl)cc1 (stereo not given),inactive,–
COc1ccc(C(=O)Nc2oc(-c3ccccc3)c(-c3ccccc3)c2C#N)cc1,inactive,–
O=C(c1ccccc1Sc1c(Cl)cccc1[N+](=O)[O-])N1CCOCC1,inconclusive: -0.0793%,–
O=C(CCN1CCCCC1)Nc1cccc(Cl)c1,inconclusive: 14.7%,–
Cc1nc(N)sc1-c1nnc(SCC(=O)Nc2ccccc2C(F)(F)F)n1C,inconclusive: -0.424%,–
COc1ccccc1CNC(=O)CCN1C(=O)c2ccccc2C1=O,inconclusive: 1.05%,–
Cc1c(C(C)(C)C)sc(=NC(=O)c2ccccc2O)n1C,inconclusive: 7.54%,–
O=C(Nc1cc(-c2ccccc2)[nH]n1)c1ccc(Cl)cc1,inconclusive: 255%,"inconclusive: 3.16 µM [falling, partial curve]"

# Compounds shown so far that have a furan ring, fused or not, in the order listed:
Structure (SMILES),"activity change, negative = inhibition",Potency
COc1ccc(C(=O)NC(=S)Nc2cc3oc4ccccc4c3cc2OC)cc1,inactive,–
COc1ccc(C(=O)Nc2oc(-c3ccccc3)c(-c3ccccc3)c2C#N)cc1,inactive,–

# The results go on:

Structure (SMILES),"activity change, negative = inhibition",Potency
CCC(Sc1nc(C)cc(=O)[nH]1)C(=O)Nc1nc2c(s1)CCCC2 (stereo not given),–,"inconclusive: 31.6 µM [cytotoxic, single point]"
CCCCCCCC(=O)N/N=C/c1ccncc1,inconclusive: 8.66%,–
CCN(CC)Cc1c(C(=O)N/N=C/c2c(Cl)cccc2Cl)nnn1-c1nonc1N,inactive,–
CCOc1ccc(C(=O)N2CCN(S(=O)(=O)c3cccs3)CC2)c(OCC)c1,inconclusive: -3.72%,–
COC(=O)c1ccc2c(=O)n(CCCCCC(=O)NCCc3ccccc3)c(=O)[nH]c2c1,inconclusive: 4.68%,–
Clc1ccc(Oc2nnnn2-c2ccccc2)cc1,inactive,–
Cc1nn(CC(=O)NC(C)CCc2ccccc2)c(=O)c2nn(-c3ccccc3)c(C)c12 (stereo not given),inconclusive: -6.1%,–
CC1=NN(c2ccc([N+](=O)[O-])cc2)C(=O)/C1=C\N(C)C,–,"inconclusive: 10.3 µM [falling, partial curve]"
C=CCSc1nc2c(cnn2-c2ccccc2)c(=O)n1N,inconclusive: -28.9%,–
Cc1ccc(NC(=O)NC(=S)NC(=O)c2ccccc2)cc1,–,"inconclusive: 20.6 µM [falling, partial curve, poor fit]"
COc1cccc(NC(=O)C(=O)NCCC2CCCCN2S(=O)(=O)c2ccccc2)c1 (stereo not given),–,"inconclusive: 18.4 µM [falling, partial curve]"
O=C1/C(=C\c2ccccn2)SC(=S)N1Nc1ncc(C(F)(F)F)cc1Cl,inactive,–
O=C(Nc1ccc(OCC(=O)N2CCOCC2)cc1)Nc1cccc2ccccc12,–,"inconclusive: 35.5 µM [falling, single point]"
COc1ccc(CCNC(=O)C(=O)NCc2cccs2)cc1OC,inconclusive: -0.918%,–
O=C(c1ccccc1F)N1CCN(C(=O)C2CC2)CC1,inactive,–
Cc1sc(NC(=O)c2ccc(Br)s2)c(C(N)=O)c1C,–,"inconclusive: 1.64 µM [rising, partial curve, poor fit]"
COc1cc(OC)cc(C(=O)NNC(=S)Nc2ccc(S(N)(=O)=O)cc2)c1,–,"inconclusive: 31.6 µM [cytotoxic, single point]"
O=C(N/N=C/c1c(Cl)[nH]c2ccccc12)c1sc2ccccc2c1Cl,inconclusive: 12.5%,–
O=C(Nc1ccc2c(c1)oc1ccccc12)c1ccc2c(c1)OCO2,–,"inconclusive: 3.16 µM [falling, full curve]"
COc1cc(OC)cc(C(=O)NC(=S)N2CCCCC2c2cccnc2)c1 (stereo not given),–,"inconclusive: 12.6 µM [falling, single point]"
O=C(/C=C/c1cccs1)Nc1nccs1,inconclusive: -5.08%,–
NC(=O)c1ccc(-n2nnnc2SCC(=O)NC2CCCCC2)cc1,–,"inconclusive: 2.82 µM [falling, partial curve, poor fit]"
Nc1c(N2CCCCC2)c(=O)[nH]c(=O)n1-c1ccccc1,inconclusive: 9.51%,–
CCC(=NCc1ccccc1)c1c(C(F)(F)F)[nH]n(-c2nc3ccccc3s2)c1=O,–,"inconclusive: 18.4 µM [falling, partial curve]"
O=C(Nc1ccccn1)c1ccc(-c2ccccc2)cc1,–,"inconclusive: 31.6 µM [rising, single point]"

# Structural class, those above with an NH in an aromatic ring (13)
Structure (SMILES),"activity change, negative = inhibition",Potency
Cc1cc(C)c(COc2ccc(/C=N/n3c(C)n[nH]c3=S)cc2)c(C)c1,inconclusive: 7.01%,–
COC(=O)CSc1nc2nc(-c3cccs3)cc(C(F)(F)F)c2c(=O)[nH]1,inconclusive: 1.72%,–
COc1ccc(NC(=O)CSc2n[nH]c(-c3ccncc3)n2)cc1Cl,inconclusive: -2.42%,–
C=CCN(C(=O)CSc1nc2[nH]ncc2c(=O)n1-c1ccccc1OC)c1ccccc1,–,"inconclusive: 35.5 µM [falling, partial curve, poor fit]"
CCOC(=O)c1c(C)[nH]c2c1cc(O)c1ccccc12,inactive,–
CC1(C)Oc2ccc3ccc(=O)oc3c2-c2cn[nH]c21,–,"inconclusive: 3.26 µM [falling, single point]"
Cc1cccc2cc(=O)[nH]c(C)c12,–,"inconclusive: 15.8 µM [falling, single point]"
O=C(Nc1cc(-c2ccccc2)[nH]n1)c1ccc(Cl)cc1,inconclusive: 255%,"inconclusive: 3.16 µM [falling, partial curve]"
CCC(Sc1nc(C)cc(=O)[nH]1)C(=O)Nc1nc2c(s1)CCCC2 (stereo not given),–,"inconclusive: 31.6 µM [cytotoxic, single point]"
COC(=O)c1ccc2c(=O)n(CCCCCC(=O)NCCc3ccccc3)c(=O)[nH]c2c1,inconclusive: 4.68%,–
O=C(N/N=C/c1c(Cl)[nH]c2ccccc12)c1sc2ccccc2c1Cl,inconclusive: 12.5%,–
Nc1c(N2CCCCC2)c(=O)[nH]c(=O)n1-c1ccccc1,inconclusive: 9.51%,–
CCC(=NCc1ccccc1)c1c(C(F)(F)F)[nH]n(-c2nc3ccccc3s2)c1=O,–,"inconclusive: 18.4 µM [falling, partial curve]"
